{"source": "PubChem BioAssay AID720519", "about": "(National Center for Advancing Translational Sciences (NCATS), 2013)", "test": "qHTS for Inhibitors of Cell Surface uPA Generation: Confirmatory Assay for Cherry-picked Compounds", "conditions": "cell surface uPA activity generation, qHTS confirmation; series mostly up to 115 µM", "summary_of_the_method": "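RAW 264.7 cells at 4000/well, incubated overnight, then treated with compounds. After 24 h at 37 C, viability was read by ATPlite luminescence. An increase in signal indicates blocked uPA-dependent LF entry.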", "note": "The inconclusive results got no clear call from the source; some entries with a clear call stand among them for comparison. A potency beside an inconclusive call is a rough fit, not a confirmed value. Calls of active or inactive are those of the source. The call rests on the fitted dose curve; in most records, active means well fitted activation curve with a large enough effect; inconclusive means small, poorly fitted or top-dose-only effect; inactive means flat fitted curve, though single readings scatter. Potency means the concentration at half of the fitted maximal effect."}
{"smiles": "CCOc1ccc(C2(C)CC(=O)N(C)C2=O)cc1", "note": "(stereo not given)", "values": [{"measurement": "Potency", "result": "inactive"}]}
{"smiles": "O=C(NNC(=O)C1CC(c2cccs2)=NO1)Nc1ccccc1", "note": "(stereo not given)", "values": [{"measurement": "Potency", "result": "inactive"}]}
{"smiles": "COc1ccc2nc3c(cc2c1)c(NC(=O)C1CCCO1)nn3CC(C)C", "note": "(stereo not given)", "values": [{"measurement": "Potency", "result": "inconclusive: 14.7 µM [activator, partial curve]"}]}
{"smiles": "O=C1[C@H]2[C@@H](c3ccc(F)cc3)N3C(=O)N(c4cccc(Br)c4)C(=O)[C@@]3(Cc3ccc(Cl)cc3)[C@H]2C(=O)N1C1CCCCC1", "values": [{"measurement": "Potency", "result": "inconclusive: 2.33 µM [activator, full curve]"}]}
{"smiles": "Cc1cccc(N2C(=O)N3[C@H](c4ccc(F)cc4)[C@@H]4C(=O)N(C5CCCCC5)C(=O)[C@@H]4[C@]3(Cc3ccc(Cl)cc3)C2=O)c1", "values": [{"measurement": "Potency", "result": "inconclusive: 5.21 µM [activator, full curve, poor fit]"}]}
{"smiles": "CN(C)c1cc(N/N=C\\c2ccccc2)nc(N(C)C)n1", "values": [{"measurement": "Potency", "result": "inconclusive: 41.4 µM [activator, full curve]"}]}
{"smiles": "COC(=O)c1c(NC(=O)c2c(OC)cccc2OC)sc2c1C(C(=O)OC)CC2", "note": "(stereo not given)", "values": [{"measurement": "Potency", "result": "active: 29.3 µM"}]}
{"smiles": "CCCCNc1nnc(SCC(=O)c2c(N)n(CCC)c(=O)[nH]c2=O)s1", "values": [{"measurement": "Potency", "result": "inconclusive: 11.7 µM [activator, full curve]"}]}
{"smiles": "COC(=O)[C@]1(Cc2ccccc2)N[C@H](CN(C)C(=O)Nc2ccc(F)cc2)[C@@H]2C(=O)N(Cc3ccccc3)C(=O)[C@@H]21", "values": [{"measurement": "Potency", "result": "inconclusive: 11.7 µM [activator, partial curve, poor fit]"}]}
{"smiles": "CC(=O)[C@@]1(O)[C@H](C)CC2C3CC=C4CC(OP(=O)(O)O)CC[C@]4(C)C3CC[C@@]21C", "note": "(stereo not given in full)", "values": [{"measurement": "Potency", "result": "inactive"}]}
